Test: Thin film transistor performance test (OTFT with vacuum-sublimed semiconductor layer)
Conditions: room temperature in air; for Mobility: 600 Å layer
[1] = gate dielectric Alumina, no surface treatment
[2] = gate dielectric Alumina/α-methylstyrene surface treatment

In the case of `c1csc(-c2c3cc4ccccc4cc3c(-c3cccs3)c3cc4ccccc4cc23)c1` [Example 1, 2-(13-thien-2-ylpentacene-6-yl)thiophene], the “On/Off Ratio” value [1] is reported as 1.5 × 10^3, the S [1] is reported as 2.06 V/decade and the Vt [1] is reported as −18.2 volts. The Mobility [1] was 3.45 × 10^−4 cm^2/V-sec, the “On/Off Ratio” value [2] was 1.1 × 10^4 and the S [2] was 1.04 V/decade. For the same compound, the Vt [2] was −3.38 volts, the Mobility [2] was 1.83 × 10^−2 cm^2/V-sec and the “On/Off Ratio” value (gate dielectric Silica) was 80.4. For the same compound, the S (gate dielectric Silica) was 5.01 V/decade, the Vt (gate dielectric Silica) was 0.0429 volts and the Mobility (gate dielectric Silica) was 6.92 × 10^−6 cm^2/V-sec.
